This note sets out measurements from PMC5355826.

Amino acid sequences for entries named in this document (tags omitted). A change or cut given only in a name is not applied to a line headed by its entry.
UniProt Q8VBV4: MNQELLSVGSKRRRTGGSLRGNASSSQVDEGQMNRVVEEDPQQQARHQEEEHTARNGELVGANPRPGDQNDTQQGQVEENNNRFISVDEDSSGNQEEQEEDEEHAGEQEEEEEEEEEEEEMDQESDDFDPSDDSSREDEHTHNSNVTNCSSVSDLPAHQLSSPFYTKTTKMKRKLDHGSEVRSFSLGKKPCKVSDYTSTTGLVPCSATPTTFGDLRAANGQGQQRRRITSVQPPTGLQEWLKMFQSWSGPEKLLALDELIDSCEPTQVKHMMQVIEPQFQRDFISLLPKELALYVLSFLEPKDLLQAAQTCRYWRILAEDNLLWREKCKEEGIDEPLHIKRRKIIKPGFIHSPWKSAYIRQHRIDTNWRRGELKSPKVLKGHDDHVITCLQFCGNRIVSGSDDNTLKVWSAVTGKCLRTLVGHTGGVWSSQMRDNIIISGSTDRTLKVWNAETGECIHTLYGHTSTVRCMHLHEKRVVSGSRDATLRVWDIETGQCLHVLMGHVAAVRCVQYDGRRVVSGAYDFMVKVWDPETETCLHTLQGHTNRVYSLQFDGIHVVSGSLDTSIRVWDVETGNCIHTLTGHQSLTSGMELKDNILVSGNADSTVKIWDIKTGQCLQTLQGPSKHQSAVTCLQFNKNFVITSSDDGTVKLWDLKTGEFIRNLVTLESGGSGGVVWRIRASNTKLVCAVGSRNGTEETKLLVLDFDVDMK

This test addresses Flag-tagged WD40 domain of FBXW7 (mouse) (UniProt Q8VBV4). The experiment in a line: co-IP.

No constants are given. Whether binding was seen depends on the method and setting. Binding seen in cells or lysates may run through a third protein. Binding calls can cover weak binding; strength is not graded here.

Turning to “Myc-tagged SHP2 (from UniProt P35235-1 1-597)”, the binding entry is listed as “binds”.
